PubChem BioAssay AID1159579 – Peter MacCallum Cancer Centre, 2015
Here is a random part of about 2,000 reagents. 549 of all reagents (27%) count as active. 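Some migration ratios are negative; siRNAs with too few cells are inactive whatever their migration ratio.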 The numbers tell different reagents against one gene apart. Not stated in the record: the time to read-out.

Test: 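Retest candidate lymphatic endothelial migration regulators using several independent siRNAs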 (follow-up of hits)
Cell system: human dermal lymphatic endothelial cells
Reagents: single siRNA against human genes, 25 nM
Measured: 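Scratch wound imaging measuring area filled by moving cells plus nuclei number, averaged over two wells and scaled to mock-transfected controls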
Reading the numbers: migration relative to mock: higher = more migration into the scratch; mean nuclei count: higher = more cells remaining
Call rule: 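Called active when the migration ratio is 0.6 or lower (impaired) or 1.3 or higher (accelerated), but inactive whenever the mean nuclei count falls under 3300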
Calls: active = migration changed (impaired or accelerated); inactive = no migration change, or too few cells

MTERF3 (mitochondrial transcription termination factor 3) #1 showed migration relative to mock 1.09; migration and cell number class no change in migration or cell number; mean nuclei count 6182; inactive. Depletion of MTERF3 (mitochondrial transcription termination factor 3) #2 came out at: migration relative to mock 0.9; migration and cell number class no change in migration or cell number; mean nuclei count 5223; inactive. Knock-down of MTERF3 (mitochondrial transcription termination factor 3) #3 came out at: migration relative to mock 0.74; migration and cell number class no change in migration or cell number; mean nuclei count 4124; inactive. After knock-down of MTERF3 (mitochondrial transcription termination factor 3) #4 the results were migration relative to mock 0.48; migration and cell number class migration reduced; mean nuclei count 4290; active. RPS6KA3 (ribosomal protein S6 kinase A3) #1 scored migration relative to mock 0.88; migration and cell number class no change in migration or cell number; mean nuclei count 6298; inactive. With knock-down of RPS6KA3 (ribosomal protein S6 kinase A3) #2, the record shows migration relative to mock 1.02; migration and cell number class no change in migration or cell number; mean nuclei count 6370; inactive.

RPS6KA3 (ribosomal protein S6 kinase A3) #3 gave migration relative to mock 1; migration and cell number class no change in migration or cell number; mean nuclei count 5700; inactive. Against RPS6KA3 (ribosomal protein S6 kinase A3) #4 the deposit lists migration relative to mock 0.96; migration and cell number class no change in migration or cell number; mean nuclei count 6821; inactive. With knock-down of GPATCH4 (G-patch domain containing 4 (gene/pseudogene)) #1, the screen gave migration relative to mock 0.66; migration and cell number class no change in migration or cell number; mean nuclei count 5018; inactive. For GPATCH4 (G-patch domain containing 4 (gene/pseudogene)) #2, the entry reads migration relative to mock 0.99; migration and cell number class no change in migration or cell number; mean nuclei count 5610; inactive. For GPATCH4 (G-patch domain containing 4 (gene/pseudogene)) #3, the entry reads migration relative to mock 0.76; migration and cell number class no change in migration or cell number; mean nuclei count 4284; inactive. Silencing of GPATCH4 (G-patch domain containing 4 (gene/pseudogene)) #4 came out at: migration relative to mock 0.98; migration and cell number class no change in migration or cell number; mean nuclei count 4830; inactive.

With knock-down of FAM9C (family with sequence similarity 9 member C) #1, the screen gave migration relative to mock 0.72; migration and cell number class no change in migration or cell number; mean nuclei count 4776; inactive. Depletion of FAM9C (family with sequence similarity 9 member C) #2 came out at: migration relative to mock 0.73; migration and cell number class no change in migration or cell number; mean nuclei count 5680; inactive. Depletion of FAM9C (family with sequence similarity 9 member C) #3 gave: migration relative to mock 0.99; migration and cell number class no change in migration or cell number; mean nuclei count 5554; inactive. FAM9C (family with sequence similarity 9 member C) #4 scored migration relative to mock 0.72; migration and cell number class no change in migration or cell number; mean nuclei count 5438; inactive. With knock-down of PARP11 (poly(ADP-ribose) polymerase family member 11) #1, the screen gave migration relative to mock 0.79; migration and cell number class no change in migration or cell number; mean nuclei count 7228; inactive. Knock-down of PARP11 (poly(ADP-ribose) polymerase family member 11) #2 resulted in: migration relative to mock 0.97; migration and cell number class no change in migration or cell number; mean nuclei count 7332; inactive.

For PARP11 (poly(ADP-ribose) polymerase family member 11) #3 the deposit lists migration relative to mock 0.77; migration and cell number class no change in migration or cell number; mean nuclei count 6778; inactive. Silencing of PARP11 (poly(ADP-ribose) polymerase family member 11) #4 gave: migration relative to mock 1.18; migration and cell number class no change in migration or cell number; mean nuclei count 5790; inactive. After knock-down of FER1L6 (fer-1 like family member 6) #1, the record shows migration relative to mock 1.01; migration and cell number class no change in migration or cell number; mean nuclei count 5332; inactive. Silencing of FER1L6 (fer-1 like family member 6) #2 came out at: migration relative to mock 1.22; migration and cell number class no change in migration or cell number; mean nuclei count 5493; inactive. FER1L6 (fer-1 like family member 6) #3 gave migration relative to mock 0.74; migration and cell number class no change in migration or cell number; mean nuclei count 4374; inactive. FER1L6 (fer-1 like family member 6) #4 scored migration relative to mock 1.02; migration and cell number class no change in migration or cell number; mean nuclei count 4906; inactive.

For TMEM255A (transmembrane protein 255A) #1, the values are migration relative to mock 0.73; migration and cell number class no change in migration or cell number; mean nuclei count 5576; inactive. Silencing of TMEM255A (transmembrane protein 255A) #2 resulted in: migration relative to mock 0.61; migration and cell number class no change in migration or cell number; mean nuclei count 4970; inactive. TMEM255A (transmembrane protein 255A) #3 showed migration relative to mock 0.95; migration and cell number class no change in migration or cell number; mean nuclei count 4706; inactive. TMEM255A (transmembrane protein 255A) #4 scored migration relative to mock 0.66; migration and cell number class no change in migration or cell number; mean nuclei count 4697; inactive. With knock-down of FAM24A (family with sequence similarity 24 member A) #1, the screen gave migration relative to mock 0.8; migration and cell number class no change in migration or cell number; mean nuclei count 5780; inactive. Silencing of FAM24A (family with sequence similarity 24 member A) #2 came out at: migration relative to mock 0.8; migration and cell number class no change in migration or cell number; mean nuclei count 4896; inactive.

Depletion of FAM24A (family with sequence similarity 24 member A) #3 gave: migration relative to mock 0.5; migration and cell number class migration reduced; mean nuclei count 4336; active. FAM24A (family with sequence similarity 24 member A) #4 showed migration relative to mock 0.88; migration and cell number class no change in migration or cell number; mean nuclei count 4302; inactive. Knock-down of GIMAP8 (GTPase, IMAP family member 8) #1 resulted in: migration relative to mock 0.99; migration and cell number class no change in migration or cell number; mean nuclei count 6391; inactive. After knock-down of GIMAP8 (GTPase, IMAP family member 8) #2, the record shows migration relative to mock 0.8; migration and cell number class no change in migration or cell number; mean nuclei count 6034; inactive. With knock-down of GIMAP8 (GTPase, IMAP family member 8) #3, the record shows migration relative to mock 0.83; migration and cell number class no change in migration or cell number; mean nuclei count 5570; inactive. GIMAP8 (GTPase, IMAP family member 8) #4 scored migration relative to mock 0.76; migration and cell number class no change in migration or cell number; mean nuclei count 5678; inactive.

Called active (from the list above):
MTERF3 (mitochondrial transcription termination factor 3) #4 → migration relative to mock = 0.48; migration and cell number class = migration reduced; mean nuclei count = 4290; Outcome = active
FAM24A (family with sequence similarity 24 member A) #3 → migration relative to mock = 0.5; migration and cell number class = migration reduced; mean nuclei count = 4336; Outcome = active
